From PubChem BioAssay AID850 (SRMLSC, 2007)
The other results are listed elsewhere or left out.

Assay: yeast lifespan-shortening chemical project counter-assay, dose-response inhibition of growth under permissive conditions (AID 850);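 note: growth read as optical density after one day of incubation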
Settings: Saccharomyces cerevisiae growth inhibition, permissive control; measured here: maximum growth inhibition; at 3.125 µM; stronger effect = higher value

Q: For `O=[N+]([O-])c1cc([N+](=O)[O-])c(-c2ccn[nH]2)s1`, which inhibition is on record?
A: The inhibition was 39.5%.
